Reference: patent publication US6593372B2, “Therapeutic uses for nitric oxide inhibitors” (Cold Spring Harbor Laboratory, priority 1996, dated 2003)
Some results were stated once for a whole list of compounds, not compound by compound.

System: Drosophila melanogaster larvae
Test: Adult fly phenotype (leg segment hypertrophy) after injection of NOS inhibitors into third instar larvae
Format: in vivo
Conditions: adults after injection of late third instar larvae
Method: Chemicals were dissolved in Schneider's solution at concentrations of 0.1 M for L-NAME and D-NAME and 0.01M for ETU and mixed with Freund's adjuvant (Sigma) in 1:3 ratio. Amounts of 5-10 nl were microinjectd in staged late third instar using a glass needle.
To test this hypothesis, NOS activity was inhibited by injecting specific NOS inhibitors in the developing larvae at the end of the third instar, several hours before metamorphosis. Most of the larvae completed metamorphosis successfully, giving rise to adult flies within the normal time frame. The resulting adults differed from normal flies in many respects, the most dramatic being enlargements of the appendages and other structures of the fly body. The changes included a) hypertrophy of the demur, tibia and the segments of the tarsus; b) overgrowth of the tissues originating from the genital discs; in extreme cases, these cells contributed to more than one-quarter of the fly body; c) and increase of the overall surface of the wings; d) overgrowth of the cells of tergites and sternites; e) hypertrophy of the humerus; f) occasional duplications of some areas of the eye; g) occasional realformation of genital structures, legs and eyes; and h) occasional ectopic formation of misplaced body structures.
The changes were most profound in, and most often affected the legs of, the adults. […]

## CCSC(=N)N [ETU, 2-ethyl-2-thiopseudourea]
  increase of diameter of certain leg segments (hypertrophy, third pair of legs): 3-4 fold
